Values quoted from earlier work as cited in patent US20240382470A1, “Irak Inhibitor for Treating Cytokine Release-Related Conditions Associated With Infection by a Respiratory Virus” (Rigel Pharmaceuticals, Inc., priority 2021, published 2024).
Some entries share one result that the patent states for a list of compounds. For at least one compound, name, drawing or mass did not settle the structure.

Conditions: in vitro; Basu et al. J Virol. 2014; cited from earlier work

Row | Compound | CC50 [µM]
1 | CCc1ccccc1OCCN1CCCCCC1 [MBX2329] | > 100
2 | Cc1cc(C)cc(NC(=O)CN(c2cc([N+](=O)[O-])ccc2C)S(C)(=O)=O)c1 [MBX2546] | > 100
